Data as given in PubChem BioAssay AID248 (DTP/NCI, 2004).
The list is a part of this screen's results and no random one: it gathers some chemical classes. Not every dose and run of a compound is shown. T/C: endpoint of the treated group in % of that of the vehicle group. For survival time, this PubChem deposit counts one and a half times the control or more as active, and values a quarter to a half above the control carry no call in these data; other NCI protocols may use other cut-offs. Some entries show no survivor count and are marked so; the dose need not have been tolerated. Schedule codes are those of the source, taken here to give the interval after Q, in days (D) or hours (H), and the number of doses after X. Some schedule codes hold Z or #, which are not explained here.

Test system: L1210 leukemia ip in BDF1 mice, survival T/C
Experiment: NCI In Vivo Anticancer Drug Screen. Data for tumor model L1210 Leukemia (intraperitoneal) in B6D2F1 (BDF1) mice
Conditions: T/C endpoint: mean survival time, higher T/C = longer survival

CCCCN(CCCl)CCCC
T/C (dose: 3.0 mg/kg/injection, schedule: Q01DX009 (ip), vehicle: saline): 114 % of control [survivor count not shown] | T/C (dose: 6.0 mg/kg/injection, schedule: Q01DX009 (ip), vehicle: saline): 121 % of control [survivor count not shown] | T/C (dose: 12.0 mg/kg/injection, schedule: Q01DX009 (ip), vehicle: saline): 117 % of control [survivor count not shown] | T/C (dose: 20.0 mg/kg/injection, schedule: Q04DX003 (ip), vehicle: saline): 103 % of control [survivor count not shown] | T/C (dose: 25.0 mg/kg/injection, schedule: Q01DX009 (ip), vehicle: saline): 90 % of control [survivor count not shown] | T/C (dose: 40.0 mg/kg/injection, schedule: Q04DX003 (ip), vehicle: saline): 113 % of control [survivor count not shown] | T/C (dose: 80.0 mg/kg/injection, schedule: Q04DX003 (ip), vehicle: saline): 104 % of control [survivor count not shown] | T/C (dose: 100.0 mg/kg/injection, schedule: Q04DX003 (ip), vehicle: saline): 105 % of control [survivor count not shown]

CCCc1[nH]c(=O)[nH]c(=O)c1CN(CCCl)CCCl
T/C (dose: 25.0 mg/kg/injection, schedule: Q04DX002 (ip), vehicle: Klucel (hydroxypropylcellulose) (HPC)): 93 % of control [survivor count not shown] | T/C (dose: 50.0 mg/kg/injection, schedule: Q04DX002 (ip), vehicle: Klucel (hydroxypropylcellulose) (HPC)): 100 % of control [survivor count not shown] | T/C (dose: 100.0 mg/kg/injection, schedule: Q04DX002 (ip), vehicle: Klucel (hydroxypropylcellulose) (HPC)): 111 % of control [survivor count not shown]

Oc1cc(O)cc(N(CCCl)CCCl)c1
T/C (dose: 25.0 mg/kg/injection, schedule: Q01DX009 (ip), vehicle: water): 104 % of control [survivor count not shown] | T/C (dose: 50.0 mg/kg/injection, schedule: Q01DX009 (ip), vehicle: water): 110 % of control [survivor count not shown] | T/C (dose: 100.0 mg/kg/injection, schedule: Q01DX009 (ip), vehicle: water): 114 % of control [survivor count not shown] | T/C (dose: 200.0 mg/kg/injection, schedule: Q01DX009 (ip), vehicle: water): 106 % of control [survivor count not shown]

COP(=O)(O)N(CCCl)CCCl.NC1CCCCC1
T/C (dose: 62.5 mg/kg/injection, schedule: Q01DX010 (ip), vehicle: saline): 98 % of control [survivor count not shown] | T/C (dose: 125.0 mg/kg/injection, schedule: Q01DX010 (ip), vehicle: saline): 113 % of control [survivor count not shown] | T/C (dose: 250.0 mg/kg/injection, schedule: Q01DX010 (ip), vehicle: saline): 129 % of control [survivor count not shown] | T/C (dose: 500.0 mg/kg/injection, schedule: Q01DX Z (ip), vehicle: saline): 140 % of control [survivor count not shown] | T/C (dose: 750.0 mg/kg/injection, schedule: Q01DX Z (ip), vehicle: saline): 124 % of control [survivor count not shown]
